According to PubChem BioAssay AID248 (DTP/NCI, 2004):
The list is a part of this screen's results and no random one: it is rich in T/C values a quarter to a half above the control, in often repeated tests (any T/C) and in doses without a T/C. Other doses and runs of a compound stand elsewhere. T/C: endpoint of the treated group in % of that of the vehicle group. Some entries give survivors of the animals treated and no T/C: the source holds a T/C of zero for them, seemingly a mark for toxic or unscored doses. Some doses without a T/C left all or most animals alive at the check, yet need not have been tolerated: the source hardly ever lists a survival T/C far under the control, and the zero likely stands for such cases as well. Counts of survivors are from the toxicity check (mostly the fifth day) where no day follows; animals may have died later. Schedules are NCI's codes, read here as Q, the interval in days (D) or hours (H), X, the number of doses. Some entries hold several experiments; the results are listed from low to high. Some schedules carry Z or #; the key to these is not given. For survival time, the PubChem record calls one and a half times the control and up active, and a quarter to a half above the control has no call in these data; cut-offs in other NCI protocols can differ. Some T/C values are followed by the survivors on the day toxicity was checked, most often the fifth; where none is given, no animal had died by that day.

Tested on: L1210 leukemia ip in BDF1 mice, survival T/C
Assay: NCI In Vivo Anticancer Drug Screen. Data for tumor model L1210 Leukemia (intraperitoneal) in B6D2F1 (BDF1) mice
Details: T/C endpoint: mean survival time, higher T/C = longer survival
[1] = dose: 400.0 mg/kg/injection, schedule: Q01DX001 (ip), vehicle: Klucel (hydroxypropylcellulose) (HPC)

Structure (SMILES): CN(Cc1cnc2nc(N)nc(N)c2n1)c1ccc(C(=O)NC(CCC(=O)O)C(=O)O)cc1Cl (stereo not given)
- T/C (dose: 3.0 mg/kg/injection, schedule: Q01DX015 (ip), vehicle: saline): 147 % of control
- T/C (dose: 5.0 mg/kg/injection, schedule: Q01DX015 (ip), vehicle: saline): 133 % of control

Structure (SMILES): N#CCSc1ncnc2nc[nH]c12
- T/C (dose: 120.0 mg/kg/injection, schedule: Q01DX010 (ip), vehicle: saline): 125 and 130 % of control
- T/C (dose: 125.0 mg/kg/injection, schedule: Q01DX Z (ip), vehicle: carboxymethylcellulose (CMC)): 141 % of control [4 of 6 alive]
- survivor count (dose: 250.0 mg/kg/injection, schedule: Q01DX Z (ip), vehicle: carboxymethylcellulose (CMC)): 0 of 6
- survivor count (dose: 500.0 mg/kg/injection, schedule: Q01DX Z (ip), vehicle: carboxymethylcellulose (CMC)): 0 of 6

Structure (SMILES): CCOC(=O)c1ccc(N(C=O)CCC(=O)CCl)cc1
- survivor count (dose: 12.5 mg/kg/injection, schedule: Q01DX009 (ip), vehicle: saline): 0 of 6
- survivor count (dose: 25.0 mg/kg/injection, schedule: Q01DX009 (ip), vehicle: saline): 4 of 6 and 6 of 6
- survivor count (dose: 50.0 mg/kg/injection, schedule: Q01DX009 (ip), vehicle: carboxymethylcellulose (CMC)): 4 of 6
- survivor count (dose: 50.0 mg/kg/injection, schedule: Q01DX009 (ip), vehicle: saline): 0 of 6
- survivor count (dose: 80.0 mg/kg/injection, schedule: Q01DX001 (ip), vehicle: saline): 3 of 6
- survivor count (dose: 100.0 mg/kg/injection, schedule: Q01DX009 (ip), vehicle: carboxymethylcellulose (CMC)): 0 of 6
- survivor count (dose: 100.0 mg/kg/injection, schedule: Q01DX009 (ip), vehicle: saline): 0 of 6

Structure (SMILES): CCOC(=O)C(C)CC(=O)c1ccccc1 (stereo not given)
- survivor count (dose: 200.0 mg/kg/injection, schedule: Q01DX009 (ip), vehicle: saline with Tween-80): 0 of 6
- survivor count (dose: 400.0 mg/kg/injection, schedule: Q04DX002 (ip), vehicle: saline with Tween-80): 2 of 3

Structure (SMILES): COC(C(=O)O)c1ccc(Br)cc1 (stereo not given)
- survivor count (dose: 300.0 mg/kg/injection, schedule: Q01DX001 (ip), vehicle: acetone): 3 of 6

Structure (SMILES): CC(O)C[As](=O)(O)c1cccc(Cl)c1 (stereo not given)
- survivor count (dose: 25.0 mg/kg/injection, schedule: Q01DX001 (ip), vehicle: Klucel (hydroxypropylcellulose) (HPC)): 0 of 6
- survivor count (dose: 50.0 mg/kg/injection, schedule: Q01DX001 (ip), vehicle: Klucel (hydroxypropylcellulose) (HPC)): 0 of 6
- survivor count (dose: 100.0 mg/kg/injection, schedule: Q01DX001 (ip), vehicle: Klucel (hydroxypropylcellulose) (HPC)): 0 of 6
- survivor count (dose: 200.0 mg/kg/injection, schedule: Q01DX001 (ip), vehicle: Klucel (hydroxypropylcellulose) (HPC)): 0 of 6
- survivor count [1]: 0 of 6

Structure (SMILES): COc1cc(C=Nc2cc(Cl)cc(Cl)c2)ccc1N(CCCl)CCCl
- T/C (dose: 30.0 mg/kg/injection, schedule: Q01DX015 (ip), vehicle: carboxymethylcellulose (CMC)): 130 % of control
- T/C (dose: 44.4 mg/kg/injection, schedule: Q01DX001 (ip), vehicle: carboxymethylcellulose (CMC)): 137 % of control
- T/C (dose: 50.0 mg/kg/injection, schedule: Q01DX015 (ip), vehicle: carboxymethylcellulose (CMC)): 133 % of control
- T/C (dose: 66.6 mg/kg/injection, schedule: Q01DX001 (ip), vehicle: carboxymethylcellulose (CMC)): 139 % of control
- T/C (dose: 100.0 mg/kg/injection, schedule: Q01DX001 (ip), vehicle: carboxymethylcellulose (CMC)): 134 % of control
- T/C (dose: 400.0 mg/kg/injection, schedule: Q01DX001 (ip), vehicle: carboxymethylcellulose (CMC)): 143 % of control

Structure (SMILES): CCC1(C)C(=O)N(Br)C(=O)N1Br (stereo not given)
- survivor count [1]: 3 of 6

Structure (SMILES): FCCBr
- survivor count (dose: 25.0 mg/kg/injection, schedule: Q01DX009 (ip), vehicle: water): 2 of 6
- survivor count (dose: 50.0 mg/kg/injection, schedule: Q01DX009 (ip), vehicle: water): 0 of 6
- survivor count (dose: 50.0 mg/kg/injection, schedule: Q04DX003 (ip), vehicle: water): 3 of 6
- survivor count (dose: 100.0 mg/kg/injection, schedule: Q01DX009 (ip), vehicle: water): 0 of 6
- survivor count (dose: 100.0 mg/kg/injection, schedule: Q04DX003 (ip), vehicle: water): 2 of 6
- survivor count (dose: 200.0 mg/kg/injection, schedule: Q04DX003 (ip), vehicle: water): 3 of 6
- survivor count (dose: 400.0 mg/kg/injection, schedule: Q04DX003 (ip), vehicle: water): 1 of 6
